# Results: PubChem BioAssay AID1487 (National Center for Advancing Translational Sciences (NCATS), 2009)
# Some of the results follow. The main result of the screen is listed elsewhere. These columns were measured beside it and carry no call. Compounds called inactive in the main read-out are mostly missing here. Potencies come from curve fits of mixed quality, noted in brackets.
# Assay: qHTS Assay for Modulators of Lamin A Splicing
# Details: HeLa LMNA splicing GFP/RFP minigene ratio, 48 h
# Method in brief: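 S3 HeLa stable clones carrying a lamin A-EGFP splicing minigene plus DsRed2 were seeded at 600 cells/well in Opti-MEM with 2% FBS, pin-dosed and incubated 48 h at 37°C. Acumen cytometry (488 nm) gave the GFP/RFP total-intensity ratio.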
# [1] = measured here: RFP viability control channel
# [2] = measured here: GFP splicing reporter channel
SMILES,AC50 [1],AC50 [2]
Cc1ccc(C)c(N2CCN(c3nc4ccccc4c(=O)n3Cc3ccccc3)CC2)c1,"11.2 µM [rising, partial curve]",
Cc1cccc(CSc2ncnc3ccccc23)c1,"0.112 µM [falling, full curve, poor fit]",
COc1cc(C2=NOC(C(=O)NCc3ccc(F)cc3)C2)cc(OC)c1OC (stereo not given),"2.82 µM [rising, full curve]",
c1ccc(-c2noc(CN3CCN(C(c4ccccc4)c4ccccc4)CC3)n2)cc1,"14.1 µM [rising, single point]",
CC1CCN(c2csc3ccc(F)cc3c2=O)CC1,,"0.02 µM [falling, full curve, poor fit]"
CCOc1ccccc1Nc1nc(-c2sc(NC(=O)c3ccco3)nc2C)cs1,"22.4 µM [falling, partial curve, poor fit]",
O=C(NC1CCCCC1)C(c1cccnc1)N(C(=O)CCl)c1ccc(F)cc1 (stereo not given),"2.24 µM [rising, partial curve]",
CCOC(=O)N/N=C/c1ccc(Oc2ccccc2)cc1,,"35.5 µM [falling, single point]"
CC(C)N1CCc2c(sc(NC(=O)c3ccc(S(=O)(=O)N(C)C4CCCCC4)cc3)c2C(N)=O)C1,"35.5 µM [falling, single point]","14.1 µM [falling, single point]"
Fc1ccc(CNC(=S)Nc2ccc(OC(F)F)cc2)cc1,"35.5 µM [rising, single point]",
Cc1ccc(C(C)C)c(OCc2ccc(C(=O)N/N=C/c3ccc(O)c(O)c3)cc2)c1,"28.2 µM [rising, single point]",
O=S(=O)(c1ccc(Cl)s1)N1CCC(Cc2ccccc2)CC1,"35.5 µM [rising, single point]","35.5 µM [rising, single point]"
Cc1ccccc1NCc1nnc2n1CCCCC2,"6.31 µM [rising, partial curve, poor fit]",
COc1ccc(CNc2ncnc3ccc(-c4ccoc4)cc23)c(OC)c1,"12.6 µM [falling, partial curve]","11.2 µM [falling, partial curve]"
Cc1nc2sc(C(c3cccc(F)c3)N3CCC(O)CC3)c(O)n2n1 (stereo not given),"35.5 µM [rising, single point]",
CCc1c(C(=O)Nc2ccncc2)csc1C,"12.6 µM [rising, partial curve]","12.6 µM [rising, single point]"
O=C(CSc1ncn[nH]1)N1N=C2/C(=C/c3ccccc3)CCCC2C1c1ccccc1 (stereo not given),"17.8 µM [rising, single point]",
c1ccc(Nc2nc(N3CCOCC3)nc(N3CCOCC3)n2)cc1,"15.8 µM [rising, partial curve]",
COc1cc(OC)c(C(=O)N2CCCC2)cc1OC,,"11.2 µM [falling, partial curve, poor fit]"
COc1ccc(C2N=C(c3ccccc3)C(C)(C)N2O)cc1OC (stereo not given),,"3.98 µM [rising, full curve, poor fit]"

SMILES,AC50 [1],AC50 [2]
O=c1c(Cl)nc2cc(Cl)ccc2n1CCNc1ncc(C(F)(F)F)cc1Cl,"7.08 µM [falling, partial curve]","11.2 µM [falling, partial curve]"
CCC(OC(=O)C1=Cc2ccccc2OC1)C(=O)NCc1ccco1 (stereo not given),,"8.91 µM [falling, single point]"
CCn1c(C)c(/C=N/Nc2nc3ccccc3s2)c2ccccc21,"0.00891 µM [falling, full curve, poor fit]","0.01 µM [falling, full curve, poor fit]"
COc1ccc(C2CC(=O)c3cnn(-c4nc(C)cc(C)n4)c3C2)cc1 (stereo not given),,"25.1 µM [rising, single point]"
CC(C)c1ccc(NC(=O)CSC2=Nc3ccccc3C3=NC(CCC(=O)NCc4ccc(F)cc4)C(=O)N23)cc1 (stereo not given),,"0.0631 µM [falling, full curve, poor fit]"
O=C(/C=C/c1cccs1)Nc1ccc(Br)cn1,"0.112 µM [rising, full curve]",
c1ccc(Cc2nc3ccccc3n2Cc2ccccc2)cc1,"31.6 µM [rising, single point]",
CN1C(=O)c2ccccc2C(C(=O)NCC2CCCO2)C1c1c[nH]c2ccccc12 (stereo not given),"4.47 µM [rising, full curve, poor fit]",
Cc1ccc(C2=NOC(=O)/C2=C\C=C\c2ccccc2)cc1,"35.5 µM [falling, single point]",
CNc1nc(Nc2ccc(Br)cc2)nc(N)c1[N+](=O)[O-],"1.58 µM [falling, full curve]","0.708 µM [falling, full curve, poor fit]"
CN(C)c1cc[n+](Cc2c(Cl)cccc2Cl)cc1,"12.6 µM [rising, single point]",
O=C(Cn1nnc(-c2ccc(F)cc2)n1)Nc1ccc2c(c1)OCCO2,"14.1 µM [rising, single point]",
COc1cccc(C(NC(=O)c2ccccc2F)NC(=O)c2ccccc2F)c1,,"0.0251 µM [falling, full curve, poor fit]"
Fc1cccc(/C=N/Nc2ncnc3nc[nH]c23)c1,"7.94 µM [falling, partial curve]","5.62 µM [falling, partial curve, poor fit]"
COc1ccc(C(=O)NNC(=O)CN2CCC(n3nnc4cc(C)ccc43)CC2)cc1,"17.8 µM [rising, partial curve]",
CCCCOc1ccc(/C=C/C(=O)OCC(=O)c2c(N)n(C)c(=O)n(C)c2=O)cc1OCC,"22.4 µM [falling, partial curve, poor fit]","17.8 µM [falling, partial curve, poor fit]"
Cc1cc(F)ccc1NC(=O)C(C(C)C)N1Cc2ccccc2C1=O (stereo not given),"0.891 µM [falling, full curve, poor fit]",
CC1(C)CC(=O)C2=C(C1)OC(N)=C(C#N)C2c1cn(-c2ccccc2)nc1-c1ccccc1 (stereo not given),"17.8 µM [rising, partial curve]",
Cc1cc(Nc2ccc(N3CCC(C)CC3)cc2)n2ncnc2n1,"14.1 µM [rising, single point]",
CC(C(=O)Nc1ccc(S(=O)(=O)N2CCOCC2)cc1)N1C(=O)C2CC=CCC2C1=O (stereo not given),"0.0282 µM [rising, full curve, poor fit]",

# Single records (already shown):
# `CCCCOc1ccc(/C=C/C(=O)OCC(=O)c2c(N)n(C)c(=O)n(C)c2=O)cc1OCC` is listed with AC50 [1]: 22.4 µM [falling, partial curve, poor fit]; AC50 [2]: 17.8 µM [falling, partial curve, poor fit]
# `O=c1c(Cl)nc2cc(Cl)ccc2n1CCNc1ncc(C(F)(F)F)cc1Cl` is listed with AC50 [1]: 7.08 µM [falling, partial curve]; AC50 [2]: 11.2 µM [falling, partial curve]
# `CNc1nc(Nc2ccc(Br)cc2)nc(N)c1[N+](=O)[O-]` is listed with AC50 [1]: 1.58 µM [falling, full curve]; AC50 [2]: 0.708 µM [falling, full curve, poor fit]
# `CC1(C)CC(=O)C2=C(C1)OC(N)=C(C#N)C2c1cn(-c2ccccc2)nc1-c1ccccc1` (stereo not given) is listed with AC50 [1]: 17.8 µM [rising, partial curve]

# Additional compounds follow:

SMILES,AC50 [1],AC50 [2]
Brc1ccc(/C=N/N2CCN(C3c4ccccc4-c4ccccc43)CC2)s1,"20 µM [falling, single point]","22.4 µM [falling, single point]"
CC(=O)N(C[C@@H](C)C(=O)O)c1c(I)cc(I)c(N)c1I,"2.51 µM [falling, single point]","2.24 µM [falling, single point]"
Cc1[nH]c2ccc(F)cc2c1CCN(Cc1ccncc1)C(=S)Nc1ccccc1,,"0.0224 µM [rising, full curve, poor fit]"
O=[N+]([O-])c1ccc(O)c(/C=N/Nc2ccccn2)c1,"1.41 µM [rising, partial curve]",
O=C(Nc1cccc(Br)c1)c1ccn[nH]1,"11.2 µM [falling, partial curve, poor fit]","11.2 µM [falling, single point]"
O=C(Nc1ccccc1)N1CCCN(Cc2c(F)cccc2Cl)CC1,"39.8 µM [falling, partial curve, poor fit]",
O=C(NCCc1ccc2c(c1)OCCO2)c1cc(F)cc(F)c1,"14.1 µM [rising, partial curve]",
CC(=O)c1ccccc1NS(=O)(=O)c1c(C)nn(-c2ccccc2)c1C,"15.8 µM [rising, partial curve]","8.91 µM [rising, partial curve, poor fit]"
c1ccc(CSc2nnc(C3CCNCC3)o2)cc1,,"0.00794 µM [rising, full curve, poor fit]"
Cc1cc2c(cc(C(=O)OC(C(=O)NCC3CCCO3)C(C)C)n2C)o1 (stereo not given),"0.00316 µM [falling, full curve, poor fit]",
CCN1CCCC1CN(Cc1cc2ccc(C)cc2[nH]c1=O)C(=S)Nc1cccc(OC)c1 (stereo not given),"11.2 µM [rising, single point]",
CCOc1ccc(Cc2nccc3cc(OCC)c(OCC)cc23)cc1OCC,"0.002 µM [falling, full curve, poor fit]","5.01 µM [falling, partial curve]"
CCc1c(C(=O)NCc2ccccc2Cl)[nH]c(C)c1C(C)=O,,"15.8 µM [rising, single point]"
Cn1cc(C(=O)CCl)c2ccccc21,"35.5 µM [falling, single point]","35.5 µM [falling, single point]"
Cc1ccc2c(c1)C1CN(C)CCC1N2C(=O)c1ccc(Cl)c(S(=O)(=O)N2CCOCC2)c1 (stereo not given),"0.158 µM [falling, full curve, poor fit]","0.0398 µM [falling, full curve, poor fit]"
c1ccc(-c2csc3ncnc(N4CCOCC4)c23)cc1,"0.794 µM [rising, partial curve]",
COc1cccc(Nc2nc(N)nc(-c3oc4ccccc4c3C)n2)c1,"12.6 µM [falling, partial curve]","12.6 µM [falling, single point]"
CC(Oc1ccc(Cl)cc1Cl)C(=O)NCCC1=CCCCC1 (stereo not given),"20 µM [rising, partial curve, poor fit]",
